{"source": "PubChem BioAssay AID1671195 (Yale University, 2021)", "aim": "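Genes whose knockdown alters LDL uptake in liver cancer cells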 (primary screen)", "system": "human Huh7 hepatoma cells", "knock-down reagent": "siRNA pool against human genes, 18 nM", "duration": "about 2 to 2.5 days of knockdown, then 8 h LDL uptake", "challenge": "DiI-labelled LDL at 30 µg/ml for 8 h, in lipoprotein-deficient serum medium", "measured": "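Fluorescent LDL signal imaged in cells, scaled to the plate median, robust z-score for each replicate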", "direction": "robust z-score: higher = more LDL uptake after knockdown", "rule for the call": "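a gene counts as active if at least two replicate z-scores exceed ±2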", "note": "This is a random part of about 22,000 reagents tested. Over the whole deposit, about 1,510 (6.9%) were called active. 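Active includes knockdowns raising or lowering LDL uptake; positive z-scores mean more uptake, negative mean less.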 A number with no mark means an inactive call."}
{"target gene": "FZD6", "robust z-score, replicate 1": -1.11, "robust z-score, replicate 2": -1.31, "robust z-score, replicate 3": -0.0962}
{"target gene": "LOC391403 (retired record)", "robust z-score, replicate 1": -1.74, "robust z-score, replicate 2": -1.37, "robust z-score, replicate 3": -1.68}
{"target gene": "LOC440445 (retired record)", "robust z-score, replicate 1": -0.256, "robust z-score, replicate 2": -0.897, "robust z-score, replicate 3": -0.546}
{"target gene": "VN1R4", "robust z-score, replicate 1": -0.275, "robust z-score, replicate 2": -0.433, "robust z-score, replicate 3": -0.287}
{"target gene": "SF3A2", "robust z-score, replicate 1": "1.08 (active)", "robust z-score, replicate 2": 3.29, "robust z-score, replicate 3": 4.97}
{"target gene": "LINC02901", "robust z-score, replicate 1": 0.496, "robust z-score, replicate 2": 0.497, "robust z-score, replicate 3": -0.245}
{"target gene": "EHBP1", "robust z-score, replicate 1": -0.518, "robust z-score, replicate 2": -0.75, "robust z-score, replicate 3": -0.91}
{"target gene": "RDH16", "robust z-score, replicate 1": -1.15, "robust z-score, replicate 2": -0.847, "robust z-score, replicate 3": -1.02}
{"target gene": "SNTA1", "robust z-score, replicate 1": 1.56, "robust z-score, replicate 2": 0.442, "robust z-score, replicate 3": 0.797}
{"target gene": "OLFM2", "robust z-score, replicate 1": -0.0723, "robust z-score, replicate 2": -1.02, "robust z-score, replicate 3": -0.554}
{"target gene": "PGAP6", "robust z-score, replicate 1": 0.0735, "robust z-score, replicate 2": 0.971, "robust z-score, replicate 3": 1.23}
{"target gene": "SNRK", "robust z-score, replicate 1": -0.0477, "robust z-score, replicate 2": -0.333, "robust z-score, replicate 3": -0.447}
{"target gene": "TRDMT1", "robust z-score, replicate 1": -0.337, "robust z-score, replicate 2": 1.38, "robust z-score, replicate 3": -0.215}
{"target gene": "SMLR1", "robust z-score, replicate 1": -0.0121, "robust z-score, replicate 2": 0.271, "robust z-score, replicate 3": 0.27}
{"target gene": "SMC1B", "robust z-score, replicate 1": -1.74, "robust z-score, replicate 2": -1.45, "robust z-score, replicate 3": -1.06}
{"target gene": "TSC2", "robust z-score, replicate 1": -1.12, "robust z-score, replicate 2": -1.37, "robust z-score, replicate 3": -1.27}

Records above with an active call, once more:
{"target gene": "SF3A2", "robust z-score, replicate 1": "1.08 (active)", "robust z-score, replicate 2": 3.29, "robust z-score, replicate 3": 4.97}
